Measurements reported in PubChem BioAssay AID248 (DTP/NCI, 2004).
The list is a part of this screen's results and no random one: it gathers tests that were run many times, whatever their T/C, doses with no T/C, and many T/C values between a quarter and a half above the control. Other doses and runs of a compound stand elsewhere. T/C gives the treated animals as a percentage of the vehicle group. Some doses have a count of surviving animals in place of a T/C: the source files T/C as zero there, which appears to mark a toxic dose or a test without result, not a measured value. Some doses without a T/C left all or most animals alive at the check, yet need not have been tolerated: the source hardly ever lists a survival T/C far under the control, and the zero likely stands for such cases as well. Counts of survivors are from the toxicity check (mostly the fifth day) where no day follows; animals may have died later. Schedules are NCI's codes, read here as Q, the interval in days (D) or hours (H), X, the number of doses. Some entries were tested several times; their values stand side by side, smallest first. Brackets with × give the number of equal values in this list. Some schedule codes hold Z or #, which are not explained here. Where survival is the endpoint, the PubChem record calls one and a half times the control and up active, and a quarter to a half above the control has no call in these data; cut-offs in other NCI protocols can differ.

Test system: L1210 leukemia ip in BDF1 mice, survival T/C
Assay: NCI In Vivo Anticancer Drug Screen. Data for tumor model L1210 Leukemia (intraperitoneal) in B6D2F1 (BDF1) mice
Settings: T/C endpoint: mean survival time, higher T/C = longer survival
[1] = dose: 400.0 mg/kg/injection, schedule: Q04DX002 (ip), vehicle: Klucel (hydroxypropylcellulose) (HPC)
[2] = dose: 200.0 mg/kg/injection, schedule: Q04DX003 (ip), vehicle: saline with Tween-80
[3] = dose: 100.0 mg/kg/injection, schedule: Q04DX003 (ip), vehicle: Klucel (hydroxypropylcellulose) (HPC)
[4] = dose: 200.0 mg/kg/injection, schedule: Q04DX003 (ip), vehicle: Klucel (hydroxypropylcellulose) (HPC)
[5] = dose: 400.0 mg/kg/injection, schedule: Q01DX001 (ip), vehicle: carboxymethylcellulose (CMC)
[6] = dose: 400.0 mg/kg/injection, schedule: Q04DX003 (ip), vehicle: Klucel (hydroxypropylcellulose) (HPC)
[7] = dose: 100.0 mg/kg/injection, schedule: Q04DX002 (ip), vehicle: Klucel (hydroxypropylcellulose) (HPC)
[8] = dose: 400.0 mg/kg/injection, schedule: Q01DX009 (ip), vehicle: Klucel (hydroxypropylcellulose) (HPC)
[9] = dose: 400.0 mg/kg/injection, schedule: Q04DX003 (ip), vehicle: saline with Tween-80

## CCC[CH2][Sn]([CH2]CCC)([CH2]CCC)[N]=C=S
dose: 1.56 mg/kg/injection, schedule: Q01DX001 (ip), vehicle: saline with Tween-80
  survivor count: 1 of 3
dose: 3.12 mg/kg/injection, schedule: Q01DX001 (ip), vehicle: saline with Tween-80
  survivor count: 0 of 3
dose: 6.25 mg/kg/injection, schedule: Q01DX001 (ip), vehicle: saline with Tween-80
  survivor count: 0 of 3 and 3 of 6
dose: 12.5 mg/kg/injection, schedule: Q01DX001 (ip), vehicle: saline with Tween-80
  survivor count: 2 of 6
dose: 25.0 mg/kg/injection, schedule: Q01DX001 (ip), vehicle: saline with Tween-80
  survivor count: 0 of 6
dose: 50.0 mg/kg/injection, schedule: Q01DX001 (ip), vehicle: saline with Tween-80
  survivor count: 0 of 6
dose: 100.0 mg/kg/injection, schedule: Q01DX001 (ip), vehicle: saline with Tween-80
  survivor count: 0 of 6 and 1 of 6
dose: 200.0 mg/kg/injection, schedule: Q01DX001 (ip), vehicle: saline with Tween-80
  survivor count: 0 of 6
dose: 400.0 mg/kg/injection, schedule: Q01DX001 (ip), vehicle: saline with Tween-80
  survivor count: 0 of 6

## [Cl][Pd][Cl].[NH-]C(c1ccccc1)C([NH-])c1ccccc1 (centres undefined)
[1]
  survivor count: 3 of 3

## S=c1cccc[nH]1.[Pb]
dose: 400.0 mg/kg/injection, schedule: Q04DX002 (ip), vehicle: gum acacia
  survivor count: 0 of 3

## Clc1ccc(Nc2cc[n+]3ccccc3c2)cc1Cl
dose: 200.0 mg/kg/injection, schedule: Q01DX001 (ip), vehicle: Klucel (hydroxypropylcellulose) (HPC)
  survivor count: 1 of 6
dose: 400.0 mg/kg/injection, schedule: Q01DX001 (ip), vehicle: Klucel (hydroxypropylcellulose) (HPC)
  survivor count: 0 of 6

## Cc1c(C(=O)O)nnn1-c1ccccc1
dose: 300.0 mg/kg/injection, schedule: Q01DX001 (ip), vehicle: saline
  survivor count: 1 of 6

## CCC(O)(CC(=O)O)c1ccccc1 (centres undefined)
dose: 400.0 mg/kg/injection, schedule: Q01DX009 (ip), vehicle: saline with Tween-80
  survivor count: 1 of 6

## Cn1[nH]c(=O)[nH]c1=O
[2]
  survivor count: 6 of 6

## CC(=O)/C(=C/c1ccccc1)N=P(c1ccccc1)(c1ccccc1)c1ccccc1
dose: 400.0 mg/kg/injection, schedule: Q01DX001 (ip), vehicle: saline
  survivor count: 6 of 6

## CCCCCCCCCCCC(=O)Nc1ccc(O)cc1
dose: 100.0 mg/kg/injection, schedule: Q01DX009 (ip), vehicle: gum acacia
  survivor count: 6 of 6

## N#CC(C#N)=NNc1ccccc1
dose: 50.0 mg/kg/injection, schedule: Q04DX003 (ip), vehicle: Klucel (hydroxypropylcellulose) (HPC)
  survivor count: 0 of 6
[3]
  survivor count: 0 of 6
[4]
  survivor count: 0 of 6

## CN1c2ccccc2Sc2ccccc21
[5]
  survivor count: 0 of 4

## O=C(Nc1ccc(C2=NCCN2)cc1)c1cc(Cl)cc(C(=O)Nc2ccc(C3=NCCN3)cc2)c1
dose: 210.0 mg/kg/injection, schedule: Q01DX Z (ip), vehicle: methylcellulose (MC)
  T/C: 126 % of control
dose: 315.0 mg/kg/injection, schedule: Q01DX Z (ip), vehicle: methylcellulose (MC)
  T/C: 138 % of control
dose: 473.0 mg/kg/injection, schedule: Q01DX Z (ip), vehicle: methylcellulose (MC)
  T/C: 131 % of control

## O=C1OC2CC3CC1C2C3 (centres undefined)
dose: 75.0 mg/kg/injection, schedule: Q01DX001 (ip), vehicle: acetone
  survivor count: 1 of 6
dose: 80.0 mg/kg/injection, schedule: Q01DX001 (ip), vehicle: other
  survivor count: 0 of 6
dose: 100.0 mg/kg/injection, schedule: Q01DX001 (ip), vehicle: carboxymethylcellulose (CMC)
  survivor count: 1 of 4
[3]
  survivor count: 0 of 6
dose: 150.0 mg/kg/injection, schedule: Q01DX001 (ip), vehicle: acetone
  survivor count: 0 of 6 and 3 of 6
dose: 200.0 mg/kg/injection, schedule: Q01DX001 (ip), vehicle: carboxymethylcellulose (CMC)
  survivor count: 0 of 4 (2×)
dose: 300.0 mg/kg/injection, schedule: Q01DX001 (ip), vehicle: acetone
  survivor count: 0 of 6 (2×)
[5]
  survivor count: 0 of 4 (2×)

## O=C(COc1cccc(Cl)c1)Nc1cccnc1
dose: 50.0 mg/kg/injection, schedule: Q01DX009 (ip), vehicle: Klucel (hydroxypropylcellulose) (HPC)
  survivor count: 6 of 6
dose: 100.0 mg/kg/injection, schedule: Q01DX009 (ip), vehicle: Klucel (hydroxypropylcellulose) (HPC)
  survivor count: 3 of 6 and 6 of 6
dose: 200.0 mg/kg/injection, schedule: Q01DX009 (ip), vehicle: Klucel (hydroxypropylcellulose) (HPC)
  survivor count: 2 of 6 and 4 of 6
[6]
  survivor count: 0 of 6

## OC[CH2][Hg][Br]
dose: 12.5 mg/kg/injection, schedule: Q04DX002 (ip), vehicle: Klucel (hydroxypropylcellulose) (HPC)
  survivor count: 3 of 3
dose: 25.0 mg/kg/injection, schedule: Q04DX002 (ip), vehicle: Klucel (hydroxypropylcellulose) (HPC)
  survivor count: 1 of 3
dose: 50.0 mg/kg/injection, schedule: Q04DX002 (ip), vehicle: Klucel (hydroxypropylcellulose) (HPC)
  survivor count: 0 of 3
[7]
  survivor count: 0 of 3
dose: 200.0 mg/kg/injection, schedule: Q04DX002 (ip), vehicle: Klucel (hydroxypropylcellulose) (HPC)
  survivor count: 0 of 3
[1]
  survivor count: 0 of 3

## CCOc1nc(N)nc(N)c1-c1ccc(Cl)cc1
dose: 400.0 mg/kg/injection, schedule: Q04DX002 (ip), vehicle: saline with Tween-80
  survivor count: 0 of 3

## CCC(C)C(CCN(CC)CC)(CNC(=O)CN(CC)CC)c1cccc2ccccc12 (centres undefined)
dose: 200.0 mg/kg/injection, schedule: Q01DX009 (ip), vehicle: saline
  survivor count: 2 of 6
dose: 400.0 mg/kg/injection, schedule: Q01DX009 (ip), vehicle: saline
  survivor count: 0 of 6

## O=C([S][Ge]([c]1ccccc1)([c]1ccccc1)[c]1ccccc1)c1ccc([N+](=O)[O-])cc1
[8]
  survivor count: 4 of 6

## CCOc1cc(N)ccc1C
[8]
  survivor count: 0 of 6

## O=[N+]([O-])C=C([SH2+])[SH2+].O=[N+]([O-])C=C([SH2+])[SH2+].[Co+3].c1ccc(C[P+](c2ccccc2)(c2ccccc2)c2ccccc2)cc1
dose: 300.0 mg/kg/injection, schedule: Q04DX003 (ip), vehicle: saline
  survivor count: 1 of 6

## Cn1c(CCN=C(N)CSS(=O)(=O)O)nc2ccccc21
[7]
  survivor count: 0 of 3
[1]
  survivor count: 0 of 3

## N#CCc1c(Cl)sc(Cl)c1CC#N
[9]
  survivor count: 0 of 3

## O=C(Cc1ccccc1)Nc1ccc(Nc2ccccc2)cc1
[7]
  survivor count: 3 of 3

## CC1CC(CN2c3ccccc3Sc3ccccc32)C(C)N1C (centres undefined)
dose: 50.0 mg/kg/injection, schedule: Q04DX003 (ip), vehicle: acetone
  survivor count: 0 of 6
dose: 100.0 mg/kg/injection, schedule: Q04DX003 (ip), vehicle: saline
  survivor count: 3 of 6
dose: 200.0 mg/kg/injection, schedule: Q04DX003 (ip), vehicle: saline
  survivor count: 0 of 6
dose: 400.0 mg/kg/injection, schedule: Q04DX003 (ip), vehicle: saline
  survivor count: 0 of 6

## CC(C)C1C(C)N1C(C)C (centres undefined)
[4]
  survivor count: 0 of 6
[6]
  survivor count: 0 of 6

## C=CCCCCCCCCC(=O)NC[n+]1cccc(O)c1
[2]
  survivor count: 6 of 6
[9]
  survivor count: 0 of 6

## O=C1c2ccccc2C(=O)N1O
[5]
  survivor count: 0 of 4

## O=C(Nc1ccc(C2=NCCN2)cc1)c1ccc(F)c(C(=O)Nc2ccc(C3=NCCN3)cc2)c1
dose: 18.0 mg/kg/injection, schedule: Q01DX Z (ip), vehicle: water
  T/C: 133 % of control

## CSc1nc(N)nc2nc(C)cc(C)c12
dose: 200.0 mg/kg/injection, schedule: Q01DX Z (ip), vehicle: methylcellulose (MC)
  survivor count: 3 of 6
